No constants are given. Whether binding was seen depends on the method and setting. Binding seen in cells or lysates may run through a third protein. Some binding calls cover weakened binding; strength is not graded here. For part of these data: Where a sequence is shown, tags or fusion partners need not be part of it.
Key:
[1] = target: Flag-tagged HIV-1 Tat (HXB2 strain) (HIV-1 (HXB2 strain)) (UniProt P04608); experiment: co-IP; HeLa cells transfected with Flag–Tat, V5–NUCKS1, or both, two days; IP with anti-Flag antibody, blot with anti-Cyclin T1 and anti-Flag
[2] = target: Flag-tagged HIV-1 Tat (HXB2 strain) (HIV-1 (HXB2 strain)) (UniProt P04608); experiment: co-IP; HEK293 cells cotransfected with Flag-tagged HIV-1 protein and V5–NUCKS1, 48 h; lysis in 250 mM NaCl, 0.5% NP-40, 50 mM Tris-HCl pH 7.5, 5 mM EDTA; IP with anti-Flag M2 at 4°C, blot with anti-V5
[3] = target: Flag-tagged HIV-1 Tat (HXB2 strain) (HIV-1 (HXB2 strain)) (UniProt P04608); experiment: co-IP; lysate of Flag–Tat-expressing HEK293 (HEK293T in the legend) cells; IP with anti-Flag or anti-Pol II antibody, blot with anti-NUCKS1 or anti-Flag; endogenous NUCKS1

Amino acid sequences for entries named in this document (tags omitted).
UniProt P04608: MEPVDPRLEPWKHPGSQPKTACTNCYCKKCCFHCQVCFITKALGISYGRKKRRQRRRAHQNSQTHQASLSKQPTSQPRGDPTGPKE

Binder | binding [1] | binding [2] | binding [3]
V5-tagged NUCKS1 (protein, UniProt Q9H1E3-1 1-243) MSRPVRNRKVVDYSQFQESDDADEDYGRDSGPPTKKIRSSPREAKNKRRSGKNSQEDSEDSEDKDVKTKKDDSHSAEDSEDEKEDHKNVRQQRQAASKAASKQREMLMEDVGSEEEQEEEDEAPFQEKDSGSDEDFLMEDDDDSDYGSSKKKNKKMVKKSKPERKEKKMPKPRLKATVTPSPVKGKGKVGRPTASKASKEKTPSPKEEDEEPESPPEKKTSTSPPPEKSGDEGSEDEAPSGED | binds | binds | –
endogenous NUCKS1 (protein, UniProt Q9H1E3 1-243) MSRPVRNRKVVDYSQFQESDDADEDYGRDSGPPTKKIRSSPREAKNKRRSGKNSQEDSEDSEDKDVKTKKDDSHSAEDSEDEKEDHKNVRQQRQAASKAASKQREMLMEDVGSEEEQEEEDEAPFQEKDSGSDEDFLMEDDDDSDYGSSKKKNKKMVKKSKPERKEKKMPKPRLKATVTPSPVKGKGKVGRPTASKASKEKTPSPKEEDEEPESPPEKKTSTSPPPEKSGDEGSEDEAPSGED | – | – | binds

From article PMC4181878
